Compound in the assay: Nc1nc2c(ncn2[C@@H]2O[C@H](COP(=O)(O)OP(=O)(O)OP(=O)(O)O)[C@@H](O)[C@H]2O)c(=O)[nH]1 [guanosine triphosphate]
Kind of assay: NP40-soluble protein abundance relative to vehicle (solubility fold change) (ratio); higher = more soluble protein in presence of GTP. As for the experimental part: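 Solubility proteome profiling in Jurkat crude lysate. Lysate was treated with Mg-GTP (0.1-10 mM) for 10 min at room temperature and 3 min at 37 °C, then solubilised with 0.8% NP40 and benzonase, followed by ultracentrifugation. Proteins were quantified by TMT10 LC-MS/MS; the value is the NP40-soluble abundance relative to the NP40-processed vehicle, from 3 independent experiments.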

Protein sequences, listed by entry. Tags and fused reporters are not part of them. Lines headed by an entry give the natural chain unless they say otherwise; changes in a name come on top.
UniProt Q9NQ88: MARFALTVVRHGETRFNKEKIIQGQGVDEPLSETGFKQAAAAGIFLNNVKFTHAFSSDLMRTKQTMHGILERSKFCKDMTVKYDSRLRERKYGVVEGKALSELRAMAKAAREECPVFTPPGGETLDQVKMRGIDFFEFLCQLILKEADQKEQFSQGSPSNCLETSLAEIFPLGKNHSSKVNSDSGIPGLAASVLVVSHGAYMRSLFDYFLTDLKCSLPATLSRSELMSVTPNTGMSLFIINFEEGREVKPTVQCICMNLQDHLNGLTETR
UniProt Q9H814, whole entry: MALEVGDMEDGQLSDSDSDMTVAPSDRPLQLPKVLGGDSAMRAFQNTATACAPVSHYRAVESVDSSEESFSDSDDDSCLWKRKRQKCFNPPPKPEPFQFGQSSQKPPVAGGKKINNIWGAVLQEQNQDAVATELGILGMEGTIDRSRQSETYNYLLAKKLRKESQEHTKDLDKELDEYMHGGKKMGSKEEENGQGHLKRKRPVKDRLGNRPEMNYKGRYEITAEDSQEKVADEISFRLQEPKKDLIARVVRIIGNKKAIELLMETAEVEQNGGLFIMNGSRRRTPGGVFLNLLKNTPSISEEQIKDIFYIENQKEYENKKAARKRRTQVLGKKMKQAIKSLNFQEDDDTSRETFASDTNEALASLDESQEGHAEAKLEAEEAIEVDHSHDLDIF
UniProt Q9H7B4: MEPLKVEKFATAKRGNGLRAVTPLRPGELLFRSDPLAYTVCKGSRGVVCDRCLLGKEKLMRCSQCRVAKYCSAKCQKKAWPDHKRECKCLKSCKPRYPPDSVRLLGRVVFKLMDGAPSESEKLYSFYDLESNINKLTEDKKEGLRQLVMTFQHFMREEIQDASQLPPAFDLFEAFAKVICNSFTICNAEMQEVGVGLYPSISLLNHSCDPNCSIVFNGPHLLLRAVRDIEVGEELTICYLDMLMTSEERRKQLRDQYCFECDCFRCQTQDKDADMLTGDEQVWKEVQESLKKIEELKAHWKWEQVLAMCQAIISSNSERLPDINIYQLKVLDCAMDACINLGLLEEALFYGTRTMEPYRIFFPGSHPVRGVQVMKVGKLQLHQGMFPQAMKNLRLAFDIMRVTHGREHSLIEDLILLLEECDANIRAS
UniProt Q9H8V3: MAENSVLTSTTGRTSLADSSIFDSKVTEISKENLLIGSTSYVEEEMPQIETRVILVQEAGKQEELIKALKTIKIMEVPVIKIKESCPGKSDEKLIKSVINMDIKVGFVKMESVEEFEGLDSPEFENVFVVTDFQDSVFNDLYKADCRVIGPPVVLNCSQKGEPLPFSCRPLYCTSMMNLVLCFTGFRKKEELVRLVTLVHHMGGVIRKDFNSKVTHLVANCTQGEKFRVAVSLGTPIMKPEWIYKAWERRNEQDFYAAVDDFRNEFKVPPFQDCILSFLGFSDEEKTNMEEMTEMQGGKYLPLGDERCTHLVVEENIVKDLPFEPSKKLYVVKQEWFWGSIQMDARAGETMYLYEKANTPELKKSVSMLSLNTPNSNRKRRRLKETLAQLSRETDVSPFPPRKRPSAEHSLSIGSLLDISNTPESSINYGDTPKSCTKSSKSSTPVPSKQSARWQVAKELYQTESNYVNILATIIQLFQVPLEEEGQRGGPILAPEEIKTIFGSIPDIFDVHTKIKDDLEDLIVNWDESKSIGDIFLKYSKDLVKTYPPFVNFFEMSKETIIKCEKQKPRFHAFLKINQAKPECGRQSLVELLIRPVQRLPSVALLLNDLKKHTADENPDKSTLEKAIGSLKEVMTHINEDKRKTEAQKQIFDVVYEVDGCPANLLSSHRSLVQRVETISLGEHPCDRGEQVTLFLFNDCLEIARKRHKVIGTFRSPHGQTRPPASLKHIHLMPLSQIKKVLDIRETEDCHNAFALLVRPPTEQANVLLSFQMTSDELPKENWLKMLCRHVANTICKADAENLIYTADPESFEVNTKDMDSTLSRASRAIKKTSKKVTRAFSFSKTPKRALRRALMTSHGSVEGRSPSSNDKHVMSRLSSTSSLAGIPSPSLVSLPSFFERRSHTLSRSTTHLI
UniProt Q9NSY1, whole entry, looked up: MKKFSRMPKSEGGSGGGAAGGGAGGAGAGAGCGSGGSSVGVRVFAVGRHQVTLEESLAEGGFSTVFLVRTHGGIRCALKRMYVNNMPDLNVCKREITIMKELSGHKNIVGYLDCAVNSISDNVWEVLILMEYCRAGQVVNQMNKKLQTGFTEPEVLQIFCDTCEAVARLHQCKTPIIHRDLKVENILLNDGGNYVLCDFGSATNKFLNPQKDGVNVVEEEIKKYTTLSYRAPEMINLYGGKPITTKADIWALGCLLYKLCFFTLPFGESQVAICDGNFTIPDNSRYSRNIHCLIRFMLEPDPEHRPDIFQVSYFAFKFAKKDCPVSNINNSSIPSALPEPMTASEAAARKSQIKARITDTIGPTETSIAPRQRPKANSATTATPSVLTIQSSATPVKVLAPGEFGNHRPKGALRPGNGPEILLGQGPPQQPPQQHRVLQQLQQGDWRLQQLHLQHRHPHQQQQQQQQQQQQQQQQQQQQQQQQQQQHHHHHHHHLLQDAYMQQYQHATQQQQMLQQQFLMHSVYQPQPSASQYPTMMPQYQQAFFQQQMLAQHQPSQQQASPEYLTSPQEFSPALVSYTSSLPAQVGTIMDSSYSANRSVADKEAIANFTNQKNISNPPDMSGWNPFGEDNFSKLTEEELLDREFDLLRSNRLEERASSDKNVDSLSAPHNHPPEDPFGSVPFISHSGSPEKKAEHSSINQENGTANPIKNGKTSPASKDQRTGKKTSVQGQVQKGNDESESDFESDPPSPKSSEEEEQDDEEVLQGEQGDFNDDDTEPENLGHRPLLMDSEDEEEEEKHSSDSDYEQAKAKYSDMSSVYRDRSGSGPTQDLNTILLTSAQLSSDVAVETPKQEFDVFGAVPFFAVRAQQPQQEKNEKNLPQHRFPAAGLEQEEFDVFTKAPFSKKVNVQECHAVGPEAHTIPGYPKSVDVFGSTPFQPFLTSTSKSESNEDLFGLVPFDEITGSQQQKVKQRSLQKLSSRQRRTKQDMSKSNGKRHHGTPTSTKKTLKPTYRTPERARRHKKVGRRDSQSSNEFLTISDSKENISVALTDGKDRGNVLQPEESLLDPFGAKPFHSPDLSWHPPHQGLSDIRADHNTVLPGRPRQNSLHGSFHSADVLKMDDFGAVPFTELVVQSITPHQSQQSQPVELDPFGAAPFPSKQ

± gives the standard deviation of the averaged measurements. Some of the results follow.

Here are results for 5 targets from the supplement of paper PMC6411743.

UniProt Q9NQ88: the NP40-soluble protein abundance is, setting by setting: (concentration: 0.1mM) 0.905 ± 0.08; (concentration: 0.5mM) 0.914 ± 0.088; (concentration: 1mM) 0.884 ± 0.078; (concentration: 2mM) 0.85 ± 0.1; (concentration: 4mM) 0.833 ± 0.093; (concentration: 6mM) 0.831 ± 0.093. In addition, the NP40-soluble protein abundance (concentration: 8mM) was 0.819 ± 0.056 and the NP40-soluble protein abundance (concentration: 10mM) was determined as 0.819 ± 0.08.

For PHAX (UniProt Q9H814), the NP40-soluble protein abundance (concentration: 0.1mM) was found to be 0.991 ± 0.068; the NP40-soluble protein abundance (concentration: 0.5mM) came to 0.987 ± 0.073; the NP40-soluble protein abundance (concentration: 1mM) worked out at 1.01 ± 0.087; the NP40-soluble protein abundance (concentration: 2mM) was found to be 0.991 ± 0.07; the NP40-soluble protein abundance (concentration: 4mM) worked out at 0.976 ± 0.061; the NP40-soluble protein abundance (concentration: 6mM) came out at 1.01 ± 0.067. For the same target, the NP40-soluble protein abundance came out at 0.998 ± 0.043 (concentration: 8mM) and 1.03 ± 0.077 (concentration: 10mM).

Regarding UniProt Q9H7B4 and related entries, the NP40-soluble protein abundance is, setting by setting: (concentration: 0.1mM) 1.04 ± 0.088; (concentration: 0.5mM) 1.03 ± 0.043; (concentration: 1mM) 0.949 ± 0.063; (concentration: 2mM) 0.967 ± 0.079; (concentration: 4mM) 0.977 ± 0.052; (concentration: 6mM) 0.931 ± 0.058. The NP40-soluble protein abundance turned out to be 0.943 ± 0.049 (concentration: 8mM) and 0.942 ± 0.059 (concentration: 10mM).

With UniProt Q9H8V3 and related entries, the NP40-soluble protein abundance runs as follows: (concentration: 0.1mM) 1.14 ± 0.067; (concentration: 0.5mM) 1.06 ± 0.042; (concentration: 1mM) 1.12 ± 0.052; (concentration: 2mM) 1.08 ± 0.069; (concentration: 4mM) 1.11 ± 0.051; (concentration: 6mM) 1.14 ± 0.048. In addition, the NP40-soluble protein abundance was 1.14 ± 0.057 (concentration: 8mM) and 1.1 ± 0.059 (concentration: 10mM).

For the target UniProt Q9NSY1, the NP40-soluble protein abundance (concentration: 0.1mM) stood at 1.11 ± 0.11; the NP40-soluble protein abundance (concentration: 0.5mM) came to 1.14 ± 0.048; the NP40-soluble protein abundance (concentration: 1mM) was found to be 1.21 ± 0.058; the NP40-soluble protein abundance (concentration: 2mM) was determined as 1.18 ± 0.044; the NP40-soluble protein abundance (concentration: 4mM) is 1.25 ± 0.079; the NP40-soluble protein abundance (concentration: 6mM) came to 1.27 ± 0.035. In addition, the NP40-soluble protein abundance came out at 1.34 ± 0.079 (concentration: 8mM) and 1.35 ± 0.13 (concentration: 10mM).
